These are yes or no findings as the source states them, for the method shown. In cells and extracts the contact can be indirect. Some binding calls cover weakened binding; strength is not graded here.

Chains of the proteins cited; added tags and fusions are not shown. Lines headed by an entry give the natural chain unless they say otherwise; changes in a name come on top.
UniProt P07737: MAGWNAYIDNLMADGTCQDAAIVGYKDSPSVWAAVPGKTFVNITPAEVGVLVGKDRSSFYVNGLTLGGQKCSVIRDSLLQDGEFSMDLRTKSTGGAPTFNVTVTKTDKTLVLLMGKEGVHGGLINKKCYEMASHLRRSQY
UniProt Q8IZP0: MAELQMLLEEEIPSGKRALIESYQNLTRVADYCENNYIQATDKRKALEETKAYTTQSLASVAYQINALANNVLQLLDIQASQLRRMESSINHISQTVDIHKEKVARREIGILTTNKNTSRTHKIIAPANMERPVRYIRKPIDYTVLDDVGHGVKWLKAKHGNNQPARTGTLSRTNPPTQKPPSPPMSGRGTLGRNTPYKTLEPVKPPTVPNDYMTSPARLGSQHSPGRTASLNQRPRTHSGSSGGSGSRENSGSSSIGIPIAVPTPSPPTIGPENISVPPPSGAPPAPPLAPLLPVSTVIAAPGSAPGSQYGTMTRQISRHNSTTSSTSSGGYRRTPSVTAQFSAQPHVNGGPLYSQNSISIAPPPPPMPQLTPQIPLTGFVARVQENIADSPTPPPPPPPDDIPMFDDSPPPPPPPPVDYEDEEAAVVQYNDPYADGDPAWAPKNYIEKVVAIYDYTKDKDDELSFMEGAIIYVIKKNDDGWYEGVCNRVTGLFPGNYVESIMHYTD
UniProt P05556: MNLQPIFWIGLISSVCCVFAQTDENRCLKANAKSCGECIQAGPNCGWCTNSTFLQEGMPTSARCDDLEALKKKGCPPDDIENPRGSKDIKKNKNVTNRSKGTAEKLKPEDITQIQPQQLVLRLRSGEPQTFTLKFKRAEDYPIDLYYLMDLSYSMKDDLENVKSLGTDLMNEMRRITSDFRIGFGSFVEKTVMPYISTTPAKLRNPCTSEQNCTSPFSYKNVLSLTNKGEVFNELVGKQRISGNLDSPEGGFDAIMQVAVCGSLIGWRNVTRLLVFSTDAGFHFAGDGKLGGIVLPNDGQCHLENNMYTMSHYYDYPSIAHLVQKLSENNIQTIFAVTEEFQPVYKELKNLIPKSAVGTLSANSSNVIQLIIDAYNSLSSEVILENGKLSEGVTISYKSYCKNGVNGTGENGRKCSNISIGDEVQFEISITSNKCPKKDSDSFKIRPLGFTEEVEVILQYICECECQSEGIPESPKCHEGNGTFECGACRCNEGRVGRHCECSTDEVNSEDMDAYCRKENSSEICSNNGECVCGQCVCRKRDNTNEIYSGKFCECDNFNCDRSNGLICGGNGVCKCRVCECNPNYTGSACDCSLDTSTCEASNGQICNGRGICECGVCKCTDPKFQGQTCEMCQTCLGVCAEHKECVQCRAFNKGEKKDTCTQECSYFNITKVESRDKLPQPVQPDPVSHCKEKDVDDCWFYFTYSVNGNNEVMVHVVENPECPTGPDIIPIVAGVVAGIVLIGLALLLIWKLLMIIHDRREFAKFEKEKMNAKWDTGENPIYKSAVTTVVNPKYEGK

Test [1] deals with profilin-1 (Pfn-1), endogenous (human (endogenous in HASM cells)) (UniProt P07737). Briefly: co-IP; endogenous proteins in extracts of HASM cells; immunoprecipitated with Pfn-1 antibody and blotted for Abi1 and Pfn-1 (Fig. 2C), or Abi1 immunoprecipitates blotted for integrin β1 (Fig. 6B).
Test [2] deals with EYFP-tagged full length Abi1 (Abelson interactor 1) (UniProt Q8IZP0). The experiment in a line: co-IP; EYFP-tagged FL Abi1 or ∆PP cotransfected into cells with Flag-Pfn-1; cell extracts immunoprecipitated with GFP antibody and blotted with GFP antibody and Flag antibody.
The target of test [3] is Abi1 (Abelson interactor 1), endogenous (human (endogenous in HASM cells)) (UniProt Q8IZP0). Briefly: co-IP; endogenous proteins in extracts of HASM cells; immunoprecipitated with Pfn-1 antibody and blotted for Abi1 and Pfn-1 (Fig. 2C), or Abi1 immunoprecipitates blotted for integrin β1 (Fig. 6B).

On to “Abi1 (Abelson interactor 1), endogenous (from UniProt Q8IZP0 1-508)”, for which the binding result in test [1] is “binds”.
Turning to “Flag-Pfn-1 (profilin-1) (from UniProt P07737 1-140)”, the binding result in test [2] is reported as “binds”.
In the case of “Integrin β1, endogenous (from UniProt P05556 21-798) (receptor)”, the binding result in test [3] is recorded as “binds”.

For the origin of these results see PMC7326921.
